Screen size: about 340,000 compounds; about 170 (0.05%) were called active. The inconclusive results got no clear call from the source; some entries with a clear call stand among them for comparison. The call rests on the fitted dose curve; in most records, active means well fitted inhibition curve with a large enough effect in the signal ratio, with a control signal flat (not every such curve was filed as active); inconclusive means small, poorly fitted or top-dose-only effect, or effect the other way, or a change in a side signal; inactive means flat fitted curve, though single readings scatter; the % refers to the signal ratio. Potencies beside an inconclusive call are fits to weak or partial responses and may not hold up. Peptide text beside a SMILES is read from it. * marks the point of attachment. Cbz = O=C(OCc1ccccc1)*
Assay: qHTS Assay to Find Inhibitors of Chronic Active B-Cell Receptor Signaling;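 on activity change, negative = inhibition: plate controls were basal doxycycline-induced cells for no effect and cells given 10 µM MG132 for full effect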
Settings: ABC-DLBCL IkBa-CBG/CBR reporter, luminescence ratio (green luciferase fused to IkBa over red control in TMD8 lymphoma cells), 4 h; activity change, negative = inhibition: at 46.1 µM (top of the series)
Summary of the method: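 Doxycycline induced both beetle luciferases in TMD8 lymphoma cells; IKK-driven degradation limits the IkappaBalpha-fused green signal, while red luminescence normalises for cell number and nonspecific effects. Compounds tested up to 46 uM, 4 hrs.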
Potency means the concentration at half of the fitted maximal effect.

Structure (SMILES) | activity change, negative = inhibition | Potency
Cc1cccc(N2CCN(C(=O)CCC(=O)N3CCOc4ccc(Cl)cc43)CC2C)c1 (configuration not stated) | inconclusive: -0.581% | –
CCOC(=O)c1c(C)nn(-c2ccc(NC(=O)/C=C/C(=O)O)cc2)c1C | inconclusive: 4.29% | –
COc1cc(C(c2sc3nc(C)nn3c2O)N2CCN(c3ccccc3)CC2)cc(OC)c1OC (configuration not stated) | inconclusive: -18.6% | –
COc1ccc(/C=N/N=C2\CC3CCC2(C)C3(C)C)cc1O (configuration not stated) | inconclusive: 9.61% | –
COc1ccc(C(=O)N/C(=C\c2ccco2)C(=O)OCc2ccco2)cc1 | inactive | –
Cn1c(SCc2cccc(C(F)(F)F)c2)nnc1-c1ccco1 | inconclusive: 5.27% | –
C=CCn1c(Cc2nc3ccccc3[nH]2)n[nH]c1=S | inactive | –
Cc1ccc2nc(N3CCN(c4ccccc4)CC3)c(C=O)c(=O)n2c1 | inconclusive: 6.37% | –
N#Cc1ccc(Oc2ccc(-c3cnc4ccccc4n3)cc2)cc1C#N | inactive | –
CNS(=O)(=O)c1cccc(C(=O)OCC(=O)Nc2nc(OC)cc(OC)n2)c1 | – | inconclusive: 25.9 µM [falling, single point]
O=C(Nc1ccc(C(F)(F)F)cc1)c1ccccc1Br | – | inconclusive: 25.1 µM [falling, partial curve, poor fit]
Cc1ccc(-c2nnc(SCC(=O)NCC3CCCO3)nc2-c2ccc(C)cc2)cc1 (configuration not stated) | inactive | –
CCOc1ccc(C(CC(=O)O)NC(=O)COc2ccccc2)cc1OC (configuration not stated) | inconclusive: -4.32% | –
COc1cccc2c(SCC(=O)N/N=C/c3ccccc3)cc(C)nc12 | inactive | –
O=C(N/N=C/c1ccc(F)cc1)c1sccc1OCc1ccc(F)cc1 | inactive | –
CC(OC(=O)Cc1ccc(Br)cc1)C(=O)NC1CCCC1 (configuration not stated) | inconclusive: -5.83% | –
Cc1cccc(-c2nnc(NC(=O)c3cccs3)s2)c1 | – | inconclusive: 1.84 µM [falling, full curve]
C/C1=C\CCC2C(/C=C(\C)CC1)OC(=O)C2CN1CCCCC1 (configuration not stated) | inconclusive: -5.26% | –
Cc1ccc(CNS(=O)(=O)CCNC(=O)c2ccccc2)cc1 | inconclusive: 10.2% | –
Cc1ccc(-c2cc(C(F)F)n3ncc(C(=O)N4CCCc5ccccc54)c3n2)cc1 | inactive | –
COc1ccc(NS(=O)(=O)c2ccc(C)c(C(=O)NCCCN3CCCC3=O)c2)cc1 | inactive | –

Six entries from above, as tab-separated lines.
Structure (SMILES)	activity change, negative = inhibition	Potency
COc1ccc(/C=N/N=C2\CC3CCC2(C)C3(C)C)cc1O (configuration not stated)	inconclusive: 9.61%	–
CNS(=O)(=O)c1cccc(C(=O)OCC(=O)Nc2nc(OC)cc(OC)n2)c1	–	inconclusive: 25.9 µM [falling, single point]
O=C(N/N=C/c1ccc(F)cc1)c1sccc1OCc1ccc(F)cc1	inactive	–
C/C1=C\CCC2C(/C=C(\C)CC1)OC(=O)C2CN1CCCCC1 (configuration not stated)	inconclusive: -5.26%	–
Cc1ccc(CNS(=O)(=O)CCNC(=O)c2ccccc2)cc1	inconclusive: 10.2%	–
COc1ccc(NS(=O)(=O)c2ccc(C)c(C(=O)NCCCN3CCCC3=O)c2)cc1	inactive	–

The listing continues.

Structure (SMILES) | activity change, negative = inhibition | Potency
Cc1ccc2c(c1)C(C)CC(C)(C)N2C(=O)NC1CCCCC1 (configuration not stated) | inactive | –
CNc1nc(SCC(=O)Nc2ccccc2)nc(N2CCOCC2)n1 | inconclusive: 0.0948% | –
Cc1cc(NC(=O)CSc2ncc(C(=O)Nc3ccc(F)cc3)c(=O)n2C)no1 | – | inconclusive: 15.8 µM [falling, partial curve, poor fit]
COc1cc(CCC(O)CC(=O)CCc2ccccc2)ccc1O (configuration not stated) | – | inconclusive: 11.2 µM [falling, partial curve, poor fit]
CCN(CC)CCOC(=O)c1ccc(NC(=O)c2cn(-c3ccccc3)nc2-c2cccs2)cc1 | inconclusive: -15.4% | –
Cc1ccc(NC(=O)c2cc3ccccc3oc2=N)cc1 | – | inconclusive: 11.2 µM [falling, partial curve]
COc1cccc(-c2cc(C(=O)NCC3CCCO3)c3cc(Br)cc(C)c3n2)c1 (configuration not stated) | inactive | –
Cc1nc2ccccc2c(=O)n1-c1ccc(NC(=O)C(F)(F)F)cc1 | inactive | –
COc1cc(-c2nc3c4ccccc4nc(=S)n3[nH]2)cc(OC)c1OC | inconclusive: 2.76% | –
CCC(=O)Oc1ccc(C(=O)Nc2cccc(C(=O)NCC(C)C)c2)cc1 | inconclusive: -28.5% | –
Cc1ccc(S(=O)(=O)c2cc3c(=O)n4cccc(C)c4nc3n(CC3CCCO3)c2=N)cc1C (configuration not stated) | inactive | –
CC(=O)c1c(C)[nH]c(C(=O)OCC(=O)N2CC(C)OC(C)C2)c1C (configuration not stated) | – | inconclusive: 25.9 µM [falling, single point]
COc1ccccc1OCCNc1ccc(S(=O)(=O)N2CCCC2)cn1 | inconclusive: 7.03% | –
Cc1ccc(NC(=O)N2CCCc3ccccc32)cc1 | inactive | –
O=C(c1ccc2c(=O)n3c(nc2c1)CCCCC3)N1CCN(c2ccccc2F)CC1 | – | inconclusive: 14.1 µM [rising, single point]
CCOC(=O)c1cc(-c2ccc(OC)cc2)n[nH]1 | – | inconclusive: 35.5 µM [falling, single point]
CC(/C=C/c1ccccc1)=N/NC(=O)Cn1nnc(N)n1 | inconclusive: 8.08% | –
CCC(=O)NC(Nc1sc2c(c1C(=O)OC)CCC2)C(Cl)(Cl)Cl (configuration not stated) | – | inconclusive: 11.6 µM [rising, partial curve, poor fit]
N/C(=N\OC(=O)c1cccs1)C1(c2ccc(Cl)cc2Cl)CC1 | – | inconclusive: 35.5 µM [rising, partial curve, poor fit]
Cc1ccc(C)c(S(=O)(=O)Nc2ccc(C(=O)N3CC(C)OC(C)C3)cc2)c1 (configuration not stated) | inconclusive: -5.07% | –
Cc1ccc(-c2nc(CS(=O)CC(=O)N3CCN(c4ccc(Cl)cc4)CC3)c(C)o2)cc1 (configuration not stated) | – | inconclusive: 10 µM [falling, partial curve, poor fit]

Structure (SMILES) | activity change, negative = inhibition | Potency
CCOC(=O)c1ccc(NC(=S)NC(=O)c2cncc(Br)c2)cc1 | inconclusive: 2.44% | –
Cc1ccc(N(C(=O)CNC(=O)c2ccco2)C(C(=O)NC2CCCC2)c2cccnc2)cc1C (configuration not stated) | inactive | –
O=C(N/N=C\c1cn[nH]c1-c1ccccc1)c1cccnc1 | – | inconclusive: 29.1 µM [falling, single point]
NS(=O)(=O)c1ccc(N/C=C\C(=O)c2ccc(F)cc2)cc1 | inactive | –
Cc1oc(C(=O)Nc2ccc(O)cc2)cc1COc1ccccc1 | – | inconclusive: 18.4 µM [falling, partial curve, poor fit]
COc1ccc(-c2cn3c(C)c(C(=O)N4CCN(c5ccccc5F)CC4)sc3n2)cc1 | inconclusive: -1.83% | –
COc1ccccc1NS(=O)(=O)c1ccc(NC(C)=O)cc1 | – | inconclusive: 20.6 µM [falling, partial curve, poor fit]
O=C(c1ccc(Cl)c(S(=O)(=O)NCc2ccco2)c1)N1CCN(c2ccc(F)cc2)CC1 | inconclusive: -1.99% | –
Cc1ccc(Cl)cc1NC(=O)c1cc(NC(=O)CCCC(=O)O)ccc1N1CCCCC1 | inconclusive: -2.12% | –
Cc1ccc(NC(=O)CSCC(=O)Nc2ccccc2C(=O)NC2CC2)cc1 | inactive | –
O=C(Cc1cccs1)N1CCN(S(=O)(=O)c2ccccc2)CC1 | inactive | –
CCCC[C@]12Cc3ccccc3C(O1)c1c(cc(-c3ccccc3)oc1=O)O2 | – | inconclusive: 2.82 µM [falling, partial curve]
COc1ccc(CCNC(=O)CN(c2cc(OC)ccc2OC)S(=O)(=O)c2ccccc2)cc1 | inactive | –
Cc1nc(-c2ccc(NC(=O)CC(C)C)cc2)cs1 | inconclusive: -5.35% | –
CCOC(=O)CON1C(=O)c2ccccc2C1=O | inconclusive: 7.2% | –
CCc1cc2ccc(C)cc2nc1SCC(=O)c1ccc(NC(C)=O)cc1 | inconclusive: 22.5% | –
CC(=O)c1cnn(-c2ccc(Cl)cc2)c1C | inactive | –
Fc1cc(Br)ccc1COc1ccc(-c2nnco2)cc1 | inconclusive: 11.2% | –
CCC1CCCCN1C(=O)CSc1nnc(CNC(=O)c2c(F)cccc2Cl)o1 (configuration not stated) | inactive | –
C/C(=N\NC1=NCCN1)c1ccc(N)c([N+](=O)[O-])c1 | – | inconclusive: 14.1 µM [falling, single point]
N#Cc1ccc2[nH]c(CO)c(-c3ccccc3)c2c1 | inconclusive: -4.4% | –

Structure (SMILES) | activity change, negative = inhibition | Potency
O=C(COC(=O)COc1ccccc1F)NCCc1ccc(F)cc1 | inconclusive: -0.609% | –
CCO[C@@H]1OC(C(=O)N2CCN(Cc3ccc4c(c3)OCO4)CC2)=C[C@H](c2ccc(C(F)(F)F)cc2)[C@H]1CCCO | inactive | –
O=C(NC(Cc1ccccc1)C(=O)N1CCN(c2ccccn2)CC1)c1ccco1 (configuration not stated) | – | inconclusive: 23.1 µM [falling, partial curve]
CN(C)S(=O)(=O)c1cccc(COC(=O)Cc2c(F)cccc2Cl)c1 | inactive | –
CCc1ccc(C(=O)COC(=O)c2ccc(Cl)nc2)cc1 | inactive | –
CCC(C)C(NC(=O)C(C)NC(=O)CNC(=O)CNC(=O)OCc1ccccc1)C(=O)OC (configuration not stated) (Cbz-GGAI-OMe; configuration not given here) | inconclusive: 15.4% | –
CCOc1ccc(C2NC(=O)C(C#N)=C(S)N2c2ccc(C)cc2)cc1OC (configuration not stated) | inconclusive: -6.89% | –
O=C(COc1ccccc1Cc1ccccc1)Nc1cccnc1 | inconclusive: 2.99% | –
O=C(Nc1ccccc1)c1cc([N+](=O)[O-])ccc1NCc1cccnc1 | inactive | –
O=C(COc1ccc(Br)cc1CO)Nc1ccccc1 | – | inconclusive: 25.1 µM [falling, single point]
COc1cccc(-c2sc3ccc(OC)cc3c2C#CC(C)(C)O)c1 | inconclusive: 25.6% | –
Fc1ccccc1CN1CCN(c2ncccn2)CC1 | inactive | –
CC1CCCC(NC(=O)CN(C)CC(=O)Nc2ccc(F)cc2)C1C (configuration not stated) | inconclusive: -21.4% | –
O=S(=O)(O)Oc1c[nH]c2ccccc12 | inconclusive: -13.4% | –
CCOC(=O)c1ccc(NC(=O)c2nc[nH]c2C(=O)N2CCC(C)CC2)cc1 | inconclusive: 6.49% | –
CCc1ccccc1NC1=NCC(=O)N1C1CCCCC1 | – | inconclusive: 6.31 µM [falling, full curve]
Cc1c(Cl)cccc1NC(=O)Nc1ccn(C)n1 | inconclusive: -12.4% | –
CCCc1nc2oc3c(NCCN(C)C)ncnc3c2c2c1CCCC2 | inconclusive: -2.9% | –
OCCNc1cc(Cl)ncn1 | inconclusive: 2.06% | –

— PubChem BioAssay AID493014 (National Center for Advancing Translational Sciences (NCATS), 2011)
